Data as given in article PMC10125982.
No constants are given. Whether binding was seen depends on the method and setting. Binding seen in cells or lysates may run through a third protein. Some entries that bind do so weakly or less than the wild type.

By UniProt entry, the sequences of proteins in these tests, tags left out.
UniProt Q969H0: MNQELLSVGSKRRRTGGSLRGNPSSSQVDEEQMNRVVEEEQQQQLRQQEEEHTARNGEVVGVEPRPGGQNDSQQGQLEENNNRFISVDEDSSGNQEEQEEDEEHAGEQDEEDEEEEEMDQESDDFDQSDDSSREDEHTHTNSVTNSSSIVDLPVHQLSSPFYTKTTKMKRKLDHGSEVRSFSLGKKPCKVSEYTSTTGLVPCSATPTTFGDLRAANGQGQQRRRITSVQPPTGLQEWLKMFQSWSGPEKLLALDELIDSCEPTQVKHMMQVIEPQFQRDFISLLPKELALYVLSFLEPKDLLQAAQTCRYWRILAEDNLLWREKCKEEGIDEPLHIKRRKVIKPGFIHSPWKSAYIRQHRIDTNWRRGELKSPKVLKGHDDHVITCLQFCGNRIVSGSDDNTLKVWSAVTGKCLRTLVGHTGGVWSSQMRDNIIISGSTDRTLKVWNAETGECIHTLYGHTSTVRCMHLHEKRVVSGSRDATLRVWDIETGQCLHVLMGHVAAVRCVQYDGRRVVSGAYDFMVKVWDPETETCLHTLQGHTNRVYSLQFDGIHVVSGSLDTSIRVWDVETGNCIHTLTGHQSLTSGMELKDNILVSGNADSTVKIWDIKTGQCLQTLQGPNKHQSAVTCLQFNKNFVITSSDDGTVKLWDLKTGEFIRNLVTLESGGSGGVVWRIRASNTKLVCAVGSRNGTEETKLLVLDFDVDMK
UniProt P01106: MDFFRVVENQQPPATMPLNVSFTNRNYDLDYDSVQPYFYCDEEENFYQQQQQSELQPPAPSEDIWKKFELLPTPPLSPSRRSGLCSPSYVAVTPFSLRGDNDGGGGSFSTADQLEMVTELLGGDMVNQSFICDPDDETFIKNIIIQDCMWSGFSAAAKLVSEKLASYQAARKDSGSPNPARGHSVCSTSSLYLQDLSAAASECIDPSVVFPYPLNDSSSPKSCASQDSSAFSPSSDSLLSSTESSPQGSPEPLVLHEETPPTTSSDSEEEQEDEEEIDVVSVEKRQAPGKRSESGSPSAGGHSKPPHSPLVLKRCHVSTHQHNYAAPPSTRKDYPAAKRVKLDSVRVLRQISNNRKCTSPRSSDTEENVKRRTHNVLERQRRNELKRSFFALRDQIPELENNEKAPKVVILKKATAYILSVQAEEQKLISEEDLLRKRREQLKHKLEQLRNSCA
UniProt Q09472: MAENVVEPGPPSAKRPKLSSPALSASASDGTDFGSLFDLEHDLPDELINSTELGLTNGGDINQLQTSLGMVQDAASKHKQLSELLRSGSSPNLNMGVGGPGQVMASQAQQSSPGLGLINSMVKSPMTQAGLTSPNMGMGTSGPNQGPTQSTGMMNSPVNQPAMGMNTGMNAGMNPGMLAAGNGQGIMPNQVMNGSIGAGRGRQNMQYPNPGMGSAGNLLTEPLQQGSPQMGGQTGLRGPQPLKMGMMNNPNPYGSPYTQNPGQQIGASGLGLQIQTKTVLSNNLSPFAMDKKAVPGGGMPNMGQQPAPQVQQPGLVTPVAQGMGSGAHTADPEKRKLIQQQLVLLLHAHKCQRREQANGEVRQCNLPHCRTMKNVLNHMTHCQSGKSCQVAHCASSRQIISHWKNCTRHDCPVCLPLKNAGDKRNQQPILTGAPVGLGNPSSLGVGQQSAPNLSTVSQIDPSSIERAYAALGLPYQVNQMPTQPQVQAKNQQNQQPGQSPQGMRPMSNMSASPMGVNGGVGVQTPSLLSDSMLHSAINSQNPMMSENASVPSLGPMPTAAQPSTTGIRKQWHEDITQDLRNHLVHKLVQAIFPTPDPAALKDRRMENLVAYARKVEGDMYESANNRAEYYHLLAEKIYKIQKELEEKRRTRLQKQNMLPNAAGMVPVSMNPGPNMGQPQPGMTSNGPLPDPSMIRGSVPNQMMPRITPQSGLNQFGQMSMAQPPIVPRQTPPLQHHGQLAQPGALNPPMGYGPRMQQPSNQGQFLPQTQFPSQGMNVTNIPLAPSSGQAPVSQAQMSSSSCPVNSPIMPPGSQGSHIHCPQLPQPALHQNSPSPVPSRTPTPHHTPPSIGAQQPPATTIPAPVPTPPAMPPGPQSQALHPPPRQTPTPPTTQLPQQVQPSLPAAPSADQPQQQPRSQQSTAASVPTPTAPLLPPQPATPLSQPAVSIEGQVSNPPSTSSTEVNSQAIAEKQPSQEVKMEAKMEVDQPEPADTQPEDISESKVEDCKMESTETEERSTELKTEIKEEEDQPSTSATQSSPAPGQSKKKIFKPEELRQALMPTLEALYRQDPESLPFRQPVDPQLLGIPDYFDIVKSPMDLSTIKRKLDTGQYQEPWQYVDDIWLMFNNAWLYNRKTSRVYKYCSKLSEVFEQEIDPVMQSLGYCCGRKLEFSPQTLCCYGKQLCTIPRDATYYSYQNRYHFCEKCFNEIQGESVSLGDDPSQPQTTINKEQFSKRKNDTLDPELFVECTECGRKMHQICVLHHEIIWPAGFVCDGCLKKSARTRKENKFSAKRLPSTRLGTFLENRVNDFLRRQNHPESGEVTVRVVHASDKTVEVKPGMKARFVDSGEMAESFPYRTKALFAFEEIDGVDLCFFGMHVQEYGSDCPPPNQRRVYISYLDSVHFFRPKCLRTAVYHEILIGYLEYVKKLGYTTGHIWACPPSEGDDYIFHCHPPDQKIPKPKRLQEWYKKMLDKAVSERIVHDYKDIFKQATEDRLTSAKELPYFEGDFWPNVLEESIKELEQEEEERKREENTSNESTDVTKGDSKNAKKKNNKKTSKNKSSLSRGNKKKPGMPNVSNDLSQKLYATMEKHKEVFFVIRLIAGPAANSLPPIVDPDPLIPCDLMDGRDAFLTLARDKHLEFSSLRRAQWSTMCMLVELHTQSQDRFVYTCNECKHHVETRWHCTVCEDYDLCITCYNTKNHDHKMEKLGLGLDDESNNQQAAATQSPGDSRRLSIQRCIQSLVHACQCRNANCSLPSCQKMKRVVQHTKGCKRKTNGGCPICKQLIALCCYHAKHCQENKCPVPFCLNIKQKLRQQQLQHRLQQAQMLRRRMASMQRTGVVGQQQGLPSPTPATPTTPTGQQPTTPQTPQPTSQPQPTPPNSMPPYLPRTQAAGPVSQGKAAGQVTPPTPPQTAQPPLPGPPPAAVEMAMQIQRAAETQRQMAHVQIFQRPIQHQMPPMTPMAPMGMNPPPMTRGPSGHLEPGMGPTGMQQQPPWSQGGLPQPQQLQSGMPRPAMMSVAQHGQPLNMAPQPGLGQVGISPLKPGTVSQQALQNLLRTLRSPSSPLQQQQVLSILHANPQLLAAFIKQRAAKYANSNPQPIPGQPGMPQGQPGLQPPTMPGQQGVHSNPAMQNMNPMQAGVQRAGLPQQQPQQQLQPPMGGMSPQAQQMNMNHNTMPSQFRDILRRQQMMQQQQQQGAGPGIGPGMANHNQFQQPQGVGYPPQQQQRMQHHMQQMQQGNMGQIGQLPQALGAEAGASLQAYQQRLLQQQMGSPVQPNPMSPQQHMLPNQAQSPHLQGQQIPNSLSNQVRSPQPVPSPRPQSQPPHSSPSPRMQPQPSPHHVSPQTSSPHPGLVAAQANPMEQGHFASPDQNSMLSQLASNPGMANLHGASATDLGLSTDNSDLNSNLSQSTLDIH

Key:
[1] = biological target: T1, Miz-1 (UniProt Q13105); assay: co-IP; K562 cells transfected with Miz-1 constructs, with or without 0.5 μM imatinib; extracts incubated with anti-Miz-1 antibody overnight at 4 °C, Protein A/G Dynabeads, washed twice with PBS, western blot
T1 sequence: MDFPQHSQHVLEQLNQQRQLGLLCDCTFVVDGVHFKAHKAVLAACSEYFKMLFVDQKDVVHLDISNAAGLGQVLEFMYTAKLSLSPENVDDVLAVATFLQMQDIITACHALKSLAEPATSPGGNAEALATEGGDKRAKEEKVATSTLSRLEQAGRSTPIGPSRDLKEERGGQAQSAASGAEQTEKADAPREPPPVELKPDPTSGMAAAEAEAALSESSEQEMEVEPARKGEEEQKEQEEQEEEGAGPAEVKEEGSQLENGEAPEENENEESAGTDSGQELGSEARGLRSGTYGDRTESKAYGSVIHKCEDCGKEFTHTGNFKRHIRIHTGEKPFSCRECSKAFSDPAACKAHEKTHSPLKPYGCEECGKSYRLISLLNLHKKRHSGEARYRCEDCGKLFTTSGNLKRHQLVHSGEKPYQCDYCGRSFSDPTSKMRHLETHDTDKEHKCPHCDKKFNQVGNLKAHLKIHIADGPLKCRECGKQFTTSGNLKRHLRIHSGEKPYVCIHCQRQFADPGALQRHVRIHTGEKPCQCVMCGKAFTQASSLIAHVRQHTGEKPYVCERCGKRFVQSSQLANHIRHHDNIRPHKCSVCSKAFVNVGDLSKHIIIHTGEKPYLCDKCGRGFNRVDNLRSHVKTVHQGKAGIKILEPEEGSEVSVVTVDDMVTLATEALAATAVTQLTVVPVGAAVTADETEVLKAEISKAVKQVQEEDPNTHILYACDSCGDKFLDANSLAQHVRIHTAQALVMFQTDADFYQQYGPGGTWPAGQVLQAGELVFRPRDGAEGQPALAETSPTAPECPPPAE

[2] = biological target: T1, Miz-1; assay: co-IP; as a1, the sample of K562 cells treated with 0.5 μM imatinib; anti-Miz-1 antibody, Protein A/G Dynabeads, western blot
[3] = biological target: Fbw7 (F-box and WD repeat domain-containing 7) (human (endogenous in K562)) (UniProt Q969H0); assay: co-IP; K562 cells with or without TXNIP overexpression; extracts incubated with anti-Fbw7 antibody overnight at 4 °C, Protein A/G Dynabeads, washed twice with PBS, western blot

binding [1]	binding [3]	Substance	binding [2]
binds	binds	c-Myc (from UniProt P01106 1-454)	no binding (condition: cells treated with 0.5 μM imatinib)
binds		p300 (from UniProt Q09472 1-2414)	
